The source of these data is patent US20220204572A1.

Protein sequences, listed by entry. Tags and fused reporters are not part of them. Residues count along the entry.
UniProt P35222, residues 2-781: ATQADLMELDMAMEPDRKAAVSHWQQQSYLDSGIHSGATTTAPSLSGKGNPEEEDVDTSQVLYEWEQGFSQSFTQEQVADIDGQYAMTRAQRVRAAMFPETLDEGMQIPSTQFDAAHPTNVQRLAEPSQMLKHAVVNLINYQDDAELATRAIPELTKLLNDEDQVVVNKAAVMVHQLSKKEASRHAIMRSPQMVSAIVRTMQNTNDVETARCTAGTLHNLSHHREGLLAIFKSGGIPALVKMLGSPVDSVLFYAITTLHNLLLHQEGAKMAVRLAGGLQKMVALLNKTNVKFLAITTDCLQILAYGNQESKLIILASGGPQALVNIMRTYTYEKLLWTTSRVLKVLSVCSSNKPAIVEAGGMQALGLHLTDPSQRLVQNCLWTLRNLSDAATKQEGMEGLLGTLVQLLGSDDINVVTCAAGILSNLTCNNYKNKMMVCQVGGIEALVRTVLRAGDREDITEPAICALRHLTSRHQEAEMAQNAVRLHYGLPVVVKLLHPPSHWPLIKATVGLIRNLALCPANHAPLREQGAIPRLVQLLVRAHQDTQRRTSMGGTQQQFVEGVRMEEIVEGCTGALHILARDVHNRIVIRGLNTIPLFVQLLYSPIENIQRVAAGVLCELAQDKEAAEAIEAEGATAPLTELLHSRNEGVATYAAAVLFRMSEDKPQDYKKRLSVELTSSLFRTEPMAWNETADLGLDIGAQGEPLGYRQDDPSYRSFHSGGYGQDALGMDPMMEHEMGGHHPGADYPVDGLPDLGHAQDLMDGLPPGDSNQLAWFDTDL
UniProt P12830, residues 155-882: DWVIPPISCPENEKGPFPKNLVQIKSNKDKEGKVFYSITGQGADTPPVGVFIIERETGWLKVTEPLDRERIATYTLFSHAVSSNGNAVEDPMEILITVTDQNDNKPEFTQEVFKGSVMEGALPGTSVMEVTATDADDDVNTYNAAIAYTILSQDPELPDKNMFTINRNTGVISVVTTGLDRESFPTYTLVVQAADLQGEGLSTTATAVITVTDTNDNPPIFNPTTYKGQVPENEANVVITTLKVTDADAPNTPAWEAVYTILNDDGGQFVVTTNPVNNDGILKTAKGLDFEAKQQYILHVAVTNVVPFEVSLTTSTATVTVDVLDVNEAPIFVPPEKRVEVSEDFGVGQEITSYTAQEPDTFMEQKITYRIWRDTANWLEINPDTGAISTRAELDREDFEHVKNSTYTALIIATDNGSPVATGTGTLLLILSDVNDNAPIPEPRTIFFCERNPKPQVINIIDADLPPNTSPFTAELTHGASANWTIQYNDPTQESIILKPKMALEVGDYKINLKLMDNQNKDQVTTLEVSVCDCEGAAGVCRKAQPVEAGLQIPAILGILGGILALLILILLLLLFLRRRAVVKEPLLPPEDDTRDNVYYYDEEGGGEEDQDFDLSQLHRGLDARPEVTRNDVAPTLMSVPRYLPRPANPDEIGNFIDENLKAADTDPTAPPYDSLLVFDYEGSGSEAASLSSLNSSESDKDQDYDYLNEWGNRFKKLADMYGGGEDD

Results are given in words; binding and its absence hold for the method and conditions named. In cells and extracts the contact can be indirect. Some entries that bind do so weakly or less than the wild type.

Assay [1] concerns the target β-catenin (native, in cell lysates) (UniProt P35222). Nature of the assay: co-immunoprecipitation.
Assay [2] shares this target. Nature of the assay: anti-β-catenin co-immunoprecipitation from MCF7 lysates (FIG. 8A).

For “E-cadherin (native, in MCF7 cell lysates) (from UniProt P12830 155-882)”, the binding entry in assay [1] and in assay [2] was “binds” in each case.
